Four substances from paper PMC5983848 can be followed below.

Protein sequences, listed by entry. Tags and fused reporters are not part of them. Lines headed by an entry give the natural chain unless they say otherwise; changes in a name come on top.
UniProt P43354: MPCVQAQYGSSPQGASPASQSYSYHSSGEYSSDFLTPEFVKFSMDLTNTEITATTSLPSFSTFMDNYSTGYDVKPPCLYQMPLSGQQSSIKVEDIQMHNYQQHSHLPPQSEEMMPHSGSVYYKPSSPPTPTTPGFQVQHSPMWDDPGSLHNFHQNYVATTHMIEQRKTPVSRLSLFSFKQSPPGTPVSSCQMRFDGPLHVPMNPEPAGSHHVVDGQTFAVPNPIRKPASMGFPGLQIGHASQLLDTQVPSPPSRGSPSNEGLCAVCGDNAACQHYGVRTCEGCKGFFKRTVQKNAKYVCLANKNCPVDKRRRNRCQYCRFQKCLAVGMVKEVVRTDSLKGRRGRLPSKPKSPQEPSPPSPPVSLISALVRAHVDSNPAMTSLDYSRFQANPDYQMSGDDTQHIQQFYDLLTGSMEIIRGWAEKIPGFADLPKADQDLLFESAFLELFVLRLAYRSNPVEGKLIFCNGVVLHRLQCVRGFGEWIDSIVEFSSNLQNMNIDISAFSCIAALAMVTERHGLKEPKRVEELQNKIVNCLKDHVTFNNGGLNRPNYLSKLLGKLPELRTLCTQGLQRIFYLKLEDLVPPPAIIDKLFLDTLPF
UniProt P51532: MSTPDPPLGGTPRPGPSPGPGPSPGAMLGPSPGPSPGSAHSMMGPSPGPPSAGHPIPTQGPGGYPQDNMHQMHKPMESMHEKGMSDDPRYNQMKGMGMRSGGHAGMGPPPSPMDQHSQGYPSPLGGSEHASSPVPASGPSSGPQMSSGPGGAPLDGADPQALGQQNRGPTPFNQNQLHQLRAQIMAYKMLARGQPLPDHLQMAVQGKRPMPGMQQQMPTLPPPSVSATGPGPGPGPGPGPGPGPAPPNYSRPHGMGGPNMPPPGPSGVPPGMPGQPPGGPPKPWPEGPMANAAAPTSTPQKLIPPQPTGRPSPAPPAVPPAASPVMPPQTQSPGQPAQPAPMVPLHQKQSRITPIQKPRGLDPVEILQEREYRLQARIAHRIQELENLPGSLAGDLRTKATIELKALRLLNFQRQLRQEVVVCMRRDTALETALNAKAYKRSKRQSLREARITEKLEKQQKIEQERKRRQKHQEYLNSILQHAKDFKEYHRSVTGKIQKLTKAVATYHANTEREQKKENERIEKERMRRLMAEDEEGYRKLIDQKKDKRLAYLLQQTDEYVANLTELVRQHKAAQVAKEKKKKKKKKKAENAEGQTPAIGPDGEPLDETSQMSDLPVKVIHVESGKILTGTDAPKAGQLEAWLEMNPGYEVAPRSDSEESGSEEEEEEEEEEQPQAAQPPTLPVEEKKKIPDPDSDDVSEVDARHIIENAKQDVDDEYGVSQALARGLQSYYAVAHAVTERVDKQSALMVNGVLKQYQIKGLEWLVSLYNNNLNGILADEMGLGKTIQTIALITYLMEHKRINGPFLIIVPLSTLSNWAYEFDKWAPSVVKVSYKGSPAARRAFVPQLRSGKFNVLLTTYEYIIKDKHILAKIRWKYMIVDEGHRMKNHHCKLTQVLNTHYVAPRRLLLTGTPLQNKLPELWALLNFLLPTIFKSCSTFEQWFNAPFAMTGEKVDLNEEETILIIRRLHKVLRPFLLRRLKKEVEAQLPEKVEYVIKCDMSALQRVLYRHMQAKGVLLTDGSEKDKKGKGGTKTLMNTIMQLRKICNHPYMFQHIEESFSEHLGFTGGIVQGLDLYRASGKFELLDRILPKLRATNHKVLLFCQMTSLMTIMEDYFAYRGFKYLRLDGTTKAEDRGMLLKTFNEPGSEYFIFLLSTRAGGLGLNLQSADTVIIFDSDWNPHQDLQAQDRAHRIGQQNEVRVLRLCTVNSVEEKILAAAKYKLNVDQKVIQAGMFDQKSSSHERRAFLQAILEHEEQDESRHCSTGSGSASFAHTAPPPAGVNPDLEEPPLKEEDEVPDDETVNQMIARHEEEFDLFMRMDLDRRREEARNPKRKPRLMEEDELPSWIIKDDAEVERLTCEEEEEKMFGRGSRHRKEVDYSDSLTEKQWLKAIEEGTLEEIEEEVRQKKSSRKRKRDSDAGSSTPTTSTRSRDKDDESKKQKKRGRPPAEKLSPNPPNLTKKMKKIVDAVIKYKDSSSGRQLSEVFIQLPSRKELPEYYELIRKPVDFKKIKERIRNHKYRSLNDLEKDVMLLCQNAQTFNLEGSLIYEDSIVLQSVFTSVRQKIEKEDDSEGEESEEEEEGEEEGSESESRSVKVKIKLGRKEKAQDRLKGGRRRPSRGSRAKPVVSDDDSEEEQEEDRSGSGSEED
UniProt Q92570: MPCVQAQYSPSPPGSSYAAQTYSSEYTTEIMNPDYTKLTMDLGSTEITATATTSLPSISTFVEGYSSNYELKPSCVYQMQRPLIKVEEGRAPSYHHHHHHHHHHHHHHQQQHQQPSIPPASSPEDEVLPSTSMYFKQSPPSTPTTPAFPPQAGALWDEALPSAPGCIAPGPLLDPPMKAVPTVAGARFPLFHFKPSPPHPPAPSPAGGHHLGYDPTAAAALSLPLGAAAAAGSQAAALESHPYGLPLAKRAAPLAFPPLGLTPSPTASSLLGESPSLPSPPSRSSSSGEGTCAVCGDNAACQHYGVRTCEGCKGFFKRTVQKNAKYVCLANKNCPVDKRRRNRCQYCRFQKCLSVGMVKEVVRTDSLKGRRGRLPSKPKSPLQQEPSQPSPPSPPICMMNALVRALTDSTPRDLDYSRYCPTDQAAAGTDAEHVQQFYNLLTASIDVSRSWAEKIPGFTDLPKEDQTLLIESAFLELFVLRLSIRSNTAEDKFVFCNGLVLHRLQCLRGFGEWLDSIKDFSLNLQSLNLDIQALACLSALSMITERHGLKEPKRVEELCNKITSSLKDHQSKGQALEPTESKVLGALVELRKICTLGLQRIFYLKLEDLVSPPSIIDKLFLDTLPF
UniProt Q13263: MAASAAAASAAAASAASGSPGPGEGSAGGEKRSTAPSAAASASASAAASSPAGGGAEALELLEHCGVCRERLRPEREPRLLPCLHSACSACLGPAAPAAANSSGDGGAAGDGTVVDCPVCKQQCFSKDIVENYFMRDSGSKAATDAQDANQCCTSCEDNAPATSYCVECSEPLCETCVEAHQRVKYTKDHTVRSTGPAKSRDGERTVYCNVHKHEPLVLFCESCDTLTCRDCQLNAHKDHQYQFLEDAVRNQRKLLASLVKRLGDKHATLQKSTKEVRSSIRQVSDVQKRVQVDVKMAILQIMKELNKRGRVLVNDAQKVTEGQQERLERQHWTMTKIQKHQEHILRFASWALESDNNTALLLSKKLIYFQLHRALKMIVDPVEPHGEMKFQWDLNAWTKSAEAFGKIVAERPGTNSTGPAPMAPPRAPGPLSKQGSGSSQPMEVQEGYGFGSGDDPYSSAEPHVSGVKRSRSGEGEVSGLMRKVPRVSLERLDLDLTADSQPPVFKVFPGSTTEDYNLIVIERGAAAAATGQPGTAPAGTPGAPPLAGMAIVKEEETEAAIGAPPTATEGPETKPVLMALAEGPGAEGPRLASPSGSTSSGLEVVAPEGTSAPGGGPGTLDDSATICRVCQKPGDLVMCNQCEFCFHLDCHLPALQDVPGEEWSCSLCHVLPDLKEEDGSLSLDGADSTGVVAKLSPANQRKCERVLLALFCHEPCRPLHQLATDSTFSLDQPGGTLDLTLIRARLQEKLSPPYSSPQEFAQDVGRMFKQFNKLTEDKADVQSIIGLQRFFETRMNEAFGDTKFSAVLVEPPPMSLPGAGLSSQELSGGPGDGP
UniProt P09874: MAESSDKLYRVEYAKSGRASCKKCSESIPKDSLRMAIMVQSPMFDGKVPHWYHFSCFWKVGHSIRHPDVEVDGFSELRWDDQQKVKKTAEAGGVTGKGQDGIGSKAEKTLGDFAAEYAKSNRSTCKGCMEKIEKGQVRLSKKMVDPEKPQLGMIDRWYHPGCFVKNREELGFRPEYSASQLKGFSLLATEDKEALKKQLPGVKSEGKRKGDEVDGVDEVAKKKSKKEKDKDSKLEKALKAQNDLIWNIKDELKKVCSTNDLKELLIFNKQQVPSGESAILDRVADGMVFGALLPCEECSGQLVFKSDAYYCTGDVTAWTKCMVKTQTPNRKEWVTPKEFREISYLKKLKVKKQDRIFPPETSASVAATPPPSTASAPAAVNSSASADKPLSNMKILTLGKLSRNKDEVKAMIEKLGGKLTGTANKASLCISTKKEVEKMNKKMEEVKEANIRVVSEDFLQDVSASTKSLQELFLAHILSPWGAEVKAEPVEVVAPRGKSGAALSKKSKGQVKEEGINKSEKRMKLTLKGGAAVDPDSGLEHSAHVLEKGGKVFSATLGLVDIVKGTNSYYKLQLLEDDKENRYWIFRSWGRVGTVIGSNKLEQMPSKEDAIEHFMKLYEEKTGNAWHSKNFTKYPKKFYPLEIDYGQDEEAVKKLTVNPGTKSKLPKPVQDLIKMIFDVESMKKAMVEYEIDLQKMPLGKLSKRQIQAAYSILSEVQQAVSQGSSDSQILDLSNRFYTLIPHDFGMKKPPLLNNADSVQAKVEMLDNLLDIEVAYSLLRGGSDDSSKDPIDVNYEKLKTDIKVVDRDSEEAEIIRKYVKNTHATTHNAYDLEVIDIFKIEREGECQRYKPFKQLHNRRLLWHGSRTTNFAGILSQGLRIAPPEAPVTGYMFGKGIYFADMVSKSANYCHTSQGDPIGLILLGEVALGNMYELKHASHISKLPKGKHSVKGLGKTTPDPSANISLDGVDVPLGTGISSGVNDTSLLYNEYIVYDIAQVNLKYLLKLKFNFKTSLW

No constants are given. Whether binding was seen depends on the method and setting. In cells and extracts the contact can be indirect. A yes stands for co-enrichment or nearness to the bait. Other partners may have been found.

This assay addresses Nurr1 (NR4A2), endogenous in H295R cells (human (endogenous in H295R)) (UniProt P43354). Put plainly: affinity purification with mass spectrometry; RIME: H295R cells stimulated with angiotensin II for 4 h, fixed with 1% formalin, endogenous Nurr1 immunoprecipitated with E-20 (anti-Nurr1/Nur77) or N-20 (anti-Nurr1) on dynabeads, washed with RIPA buffer, on-bead trypsin digest, LC-MS/MS; rabbit IgG as negative control.
As to “BRG-1, endogenous in H295R cells (from UniProt P51532 1-1647)”, the binding result is “binds”.

As for “NOR-1 (neuron-derived orphan receptor 1) (NR4A3), endogenous in H295R cells (from UniProt Q92570 1-626)”, the binding result is given as “binds”.

In the case of “TRIM28, endogenous in H295R cells (from UniProt Q13263 1-835)”, the binding result is “binds”.

Regarding “poly(ADP-ribose) polymerase 1 (PARP1), endogenous in H295R cells (from UniProt P09874 1-1014) (enzyme)”, the binding result is given as “binds”.
